Where a chain is given by its changes, count along the chain named. The comparison behind a weaker result is the experiment's own reference, which may not be listed here. Protein sequences can lack the tags named with them. For part of these data: Construct, isoform or probe ends are uncertain for at least one entry. For part of these data: At least one verdict rests on a figure or table, not on a statement of the authors.
Assays:
Assay in all cases: EMSA
Conditions in all cases: no ATP, 5 mM Mg2+, 35 mM Tris-HCl pH 7.5, 1 mM DTT, 5 mM MgCl2, 60 mM KCl, 0.1 mg/ml BSA, 30 min at 30 C, 5 nM ssDNA, recombinant protein, residues 40-859, protein details: N-terminal superfolder GFP, Ni-NTA purified, label: 5' Alexa647, single-stranded DNA
[1] = target: T1, GFP-Pif1 S304A (Saccharomyces cerevisiae) (UniProt P07271)
T1 sequence (looked up): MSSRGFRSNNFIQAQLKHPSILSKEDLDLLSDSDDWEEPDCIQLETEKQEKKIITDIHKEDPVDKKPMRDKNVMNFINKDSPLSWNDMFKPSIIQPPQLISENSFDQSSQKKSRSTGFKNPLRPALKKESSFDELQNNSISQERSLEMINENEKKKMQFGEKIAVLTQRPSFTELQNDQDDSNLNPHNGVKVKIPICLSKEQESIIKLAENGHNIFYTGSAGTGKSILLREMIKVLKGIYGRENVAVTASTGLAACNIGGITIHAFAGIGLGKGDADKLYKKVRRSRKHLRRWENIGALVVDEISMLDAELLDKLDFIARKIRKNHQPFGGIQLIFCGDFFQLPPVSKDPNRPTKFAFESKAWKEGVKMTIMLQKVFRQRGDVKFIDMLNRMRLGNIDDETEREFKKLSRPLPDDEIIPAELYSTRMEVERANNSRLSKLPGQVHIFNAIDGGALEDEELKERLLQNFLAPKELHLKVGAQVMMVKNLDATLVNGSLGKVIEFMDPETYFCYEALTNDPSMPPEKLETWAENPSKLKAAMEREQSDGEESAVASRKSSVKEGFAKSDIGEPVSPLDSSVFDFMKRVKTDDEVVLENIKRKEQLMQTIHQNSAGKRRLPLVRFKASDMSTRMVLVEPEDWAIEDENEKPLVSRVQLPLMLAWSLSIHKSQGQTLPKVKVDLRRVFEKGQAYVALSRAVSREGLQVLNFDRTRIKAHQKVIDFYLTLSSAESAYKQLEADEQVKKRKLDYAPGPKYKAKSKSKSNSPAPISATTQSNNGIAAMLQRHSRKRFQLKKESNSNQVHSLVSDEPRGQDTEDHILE

[2] = target: T2, GFP-Pif1 S703A (Saccharomyces cerevisiae) (UniProt P07271)
T2 sequence (looked up): T1 sequence (looked up) with A265S, S664A

[3] = target: T3, GFP-Pif1 V385A (Saccharomyces cerevisiae) (UniProt P07271)
T3 sequence (looked up): T1 sequence (looked up) with A265S, V346A

Measured: binding result

GCTAGCAGTAGCCAGCATCGAACGTACGATCGGTAACGTA [40-nt ssDNA]
binds more weakly: [1] | [2] | [3]

— article PMC10279920, “Single-molecule visualization of Pif1 helicase translocation on single-stranded DNA” (The Journal of Biological Chemistry, 2023)
